Test results as given in PMC5606997.
No constants are given. Whether binding was seen depends on the method and setting. In cells and extracts the contact can be indirect. Here binding means that the protein was enriched with, or labelled near, the bait; the list need not be complete. No binding means not detected with the bait. Tags and fused reporters may be left off the sequences shown.

Protein sequences, listed by entry. Tags and fused reporters are not part of them.
UniProt P11940: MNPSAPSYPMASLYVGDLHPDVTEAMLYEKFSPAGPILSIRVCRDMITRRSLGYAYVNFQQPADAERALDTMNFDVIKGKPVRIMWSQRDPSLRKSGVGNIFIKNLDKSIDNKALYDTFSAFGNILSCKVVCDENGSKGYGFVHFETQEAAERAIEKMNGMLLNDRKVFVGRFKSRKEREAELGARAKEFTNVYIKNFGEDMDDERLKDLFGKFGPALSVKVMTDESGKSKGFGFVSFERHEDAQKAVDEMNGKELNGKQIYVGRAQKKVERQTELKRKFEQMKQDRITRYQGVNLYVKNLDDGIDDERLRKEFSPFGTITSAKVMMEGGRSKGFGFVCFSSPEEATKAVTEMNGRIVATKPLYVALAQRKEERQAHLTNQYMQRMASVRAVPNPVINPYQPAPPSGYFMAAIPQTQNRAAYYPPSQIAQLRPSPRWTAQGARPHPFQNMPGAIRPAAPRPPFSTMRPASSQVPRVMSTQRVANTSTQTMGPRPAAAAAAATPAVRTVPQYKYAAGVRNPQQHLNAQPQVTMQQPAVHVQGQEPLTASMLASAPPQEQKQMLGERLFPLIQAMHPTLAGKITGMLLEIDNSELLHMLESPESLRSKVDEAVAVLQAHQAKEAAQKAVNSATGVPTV

T1: FAM46C^WT-GFP (human) (UniProt Q5VWP2)
T1 sequence: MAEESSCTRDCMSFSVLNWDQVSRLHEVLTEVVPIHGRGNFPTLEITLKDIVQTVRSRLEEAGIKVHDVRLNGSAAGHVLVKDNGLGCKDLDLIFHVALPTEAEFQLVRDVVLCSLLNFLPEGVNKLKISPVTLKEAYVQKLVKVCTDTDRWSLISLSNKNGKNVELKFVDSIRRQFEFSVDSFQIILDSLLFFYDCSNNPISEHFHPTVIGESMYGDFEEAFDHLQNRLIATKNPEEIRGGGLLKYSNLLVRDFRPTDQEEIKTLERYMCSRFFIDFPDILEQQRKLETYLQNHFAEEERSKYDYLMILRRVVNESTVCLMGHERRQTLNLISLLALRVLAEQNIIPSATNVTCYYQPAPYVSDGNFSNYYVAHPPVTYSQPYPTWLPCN


Target: T1, FAM46C^WT-GFP (human)
Assay: affinity purification with mass spectrometry; FAM46C^WT-GFP from HEK293 cells captured on anti-GFP resin; LB buffer (20 mM Tris, 150 mM NaCl, 0.5% Triton-X100), TEV cleavage, LC-MS with label-free quantification

binding	Molecule
binds	cytoplasmic poly(A)-binding protein PABPC1 (from UniProt P11940 1-636)
no binding	FAM46B (protein, UniProt Q96A09 1-425) MMPSESGAERRDRAAAQVGTAAATAVATAAPAGGGPDPEALSAFPGRHLSGLSWPQVKRLDALLSEPIPIHGRGNFPTLSVQPRQIVQVVRSTLEEQGLHVHSVRLHGSAASHVLHPESGLGYKDLDLVFRVDLRSEASFQLTKAVVLACLLDFLPAGVSRAKITPLTLKEAYVQKLVKVCTDSDRWSLISLSNKSGKNVELKFVDSVRRQFEFSIDSFQIILDSLLLFGQCSSTPMSEAFHPTVTGESLYGDFTEALEHLRHRVIATRSPEEIRGGGLLKYCHLLVRGFRPRPSTDVRALQRYMCSRFFIDFPDLVEQRRTLERYLEAHFGGADAARRYACLVTLHRVVNESTVCLMNHERRQTLDLIAALALQALAEQGPAATAALAWRPPGTDGVVPATVNYYVTPVQPLLAHAYPTWLPCN
